In PMC11165029:
Results are given in words; binding and its absence hold for the method and conditions named. Binding seen in cells or lysates may run through a third protein. Some entries that bind do so weakly or less than the wild type. For part of these data: Sequences can lack the tags named with a protein.

How the values were obtained:
[1] = molecular target: TNF receptor-associated factor 4 (TRAF4), overexpressed tagged form (UniProt Q9BUZ4); assay: co-IP; lysates of HEK293T transfectants with combinations of plasmids; immunoprecipitation with anti-HA tag antibody-conjugated agarose beads, anti-DYKDDDDK tag beads as negative control; blots with anti-HA, anti-Myc or anti-albumin antibody
[2] = molecular target: integrin-β1, endogenous (intrinsic) in MDA-MB-231 cells (human (endogenous in MDA-MB-231)) (UniProt P05556); assay: co-IP; extract of MDA-MB-231 parental cells; endogenous integrin-β1 captured with biotinylated anti-integrin-β1 antibody and streptavidin-agarose; bio-control IgG as negative control; blots of the precipitates
[3] = molecular target: integrin-β1, endogenous (intrinsic) in MDA-MB-231 cells (human (endogenous in MDA-MB-231)) (UniProt P05556); assay: co-IP; extracts of MDA-MB-231/LOXL4 wt-overexpressing cells; endogenous integrin-β1 captured with biotinylated anti-integrin-β1 antibody and streptavidin-agarose; bio-control IgG as negative control; blots of the precipitates

Row | Binder | binding [1] | binding [2] | binding [3]
1 | TGF-β activated kinase 1 (TAK1), overexpressed tagged form (enzyme, UniProt O43318 1-606) MSTASAASSSSSSSAGEMIEAPSQVLNFEEIDYKEIEVEEVVGRGAFGVVCKAKWRAKDVAIKQIESESERKAFIVELRQLSRVNHPNIVKLYGACLNPVCLVMEYAEGGSLYNVLHGAEPLPYYTAAHAMSWCLQCSQGVAYLHSMQPKALIHRDLKPPNLLLVAGGTVLKICDFGTACDIQTHMTNNKGSAAWMAPEVFEGSNYSEKCDVFSWGIILWEVITRRKPFDEIGGPAFRIMWAVHNGTRPPLIKNLPKPIESLMTRCWSKDPSQRPSMEEIVKIMTHLMRYFPGADEPLQYPCQYSDEGQSNSATSTGSFMDIASTNTSNKSDTNMEQVPATNDTIKRLESKLLKNQAKQQSESGRLSLGASRGSSVESLPPTSEGKRMSADMSEIEARIAATTAYSKPKRGHRKTASFGNILDVPEIVISGNGQPRRRSIQDLTVTGTEPGQVSSRSSSPSVRMITTSGPTSEKPTRSHPWTPDDSTDTNGSDNSIPMAYLTLDHQLQPLAPCPNSKESMAVFEQHCKMAQEYMKVQTEIALLLQRKQELVAELDQDEKDQQNTSRLVQEHKKLLDENKSLSTYYQQCKKQLEVIRSQQQKRQGTS | binds | – | –
2 | TGF-β activated kinase 1 (TAK1), endogenous in MDA-MB-231 cells (enzyme, UniProt O43318 1-606) MSTASAASSSSSSSAGEMIEAPSQVLNFEEIDYKEIEVEEVVGRGAFGVVCKAKWRAKDVAIKQIESESERKAFIVELRQLSRVNHPNIVKLYGACLNPVCLVMEYAEGGSLYNVLHGAEPLPYYTAAHAMSWCLQCSQGVAYLHSMQPKALIHRDLKPPNLLLVAGGTVLKICDFGTACDIQTHMTNNKGSAAWMAPEVFEGSNYSEKCDVFSWGIILWEVITRRKPFDEIGGPAFRIMWAVHNGTRPPLIKNLPKPIESLMTRCWSKDPSQRPSMEEIVKIMTHLMRYFPGADEPLQYPCQYSDEGQSNSATSTGSFMDIASTNTSNKSDTNMEQVPATNDTIKRLESKLLKNQAKQQSESGRLSLGASRGSSVESLPPTSEGKRMSADMSEIEARIAATTAYSKPKRGHRKTASFGNILDVPEIVISGNGQPRRRSIQDLTVTGTEPGQVSSRSSSPSVRMITTSGPTSEKPTRSHPWTPDDSTDTNGSDNSIPMAYLTLDHQLQPLAPCPNSKESMAVFEQHCKMAQEYMKVQTEIALLLQRKQELVAELDQDEKDQQNTSRLVQEHKKLLDENKSLSTYYQQCKKQLEVIRSQQQKRQGTS | – | binds weakly | binds
